The nature of this data set: Phase 1 atorvastatin-isavuconazole interaction study, plasma PK.

The values below come from publication PMC5297980 (Clinical Pharmacology in Drug Development, 2016).

Regarding `CC(C)c1c(C(=O)Nc2ccccc2)c(-c2ccccc2)c(-c2ccc(F)cc2)n1CC[C@@H](O)C[C@@H](O)CC(=O)O` [Atorvastatin, atorvastatin], under “human, plasma, oral, 20 mg”, the AUC(0-t) (as a rule, the area under the concentration-time curve up to a stated or last time point) was found to be 40.5 ng·h/mL and the Tmax (in general, the time from dosing to the highest level) was 48 min. The AUC(0-inf) (as a rule, the area under the concentration-time curve extrapolated to infinity) (human, plasma, po, 20 mg) came to 44.4 ng·h/mL. In addition, under “vs atorvastatin alone”, the “Mean AUClast higher following coadministration with isavuconazole” value was 38% and the “Mean Cmax higher following coadministration with isavuconazole” value is on record as 3%.
